Measured values reported in paper PMC11425221.
These are yes or no findings as the source states them, for the method shown. Binding seen in cells or lysates may run through a third protein. Some entries that bind do so weakly or less than the wild type. For some assays here: Where a sequence is shown, tags or fusion partners need not be part of it. One block for each binder: values may come before it.

By UniProt entry, the sequences of proteins in these tests, tags left out. Where a name states a change or a piece, a line headed by the entry shows the natural chain unless it says otherwise. Residues count along the entry.
UniProt P31749: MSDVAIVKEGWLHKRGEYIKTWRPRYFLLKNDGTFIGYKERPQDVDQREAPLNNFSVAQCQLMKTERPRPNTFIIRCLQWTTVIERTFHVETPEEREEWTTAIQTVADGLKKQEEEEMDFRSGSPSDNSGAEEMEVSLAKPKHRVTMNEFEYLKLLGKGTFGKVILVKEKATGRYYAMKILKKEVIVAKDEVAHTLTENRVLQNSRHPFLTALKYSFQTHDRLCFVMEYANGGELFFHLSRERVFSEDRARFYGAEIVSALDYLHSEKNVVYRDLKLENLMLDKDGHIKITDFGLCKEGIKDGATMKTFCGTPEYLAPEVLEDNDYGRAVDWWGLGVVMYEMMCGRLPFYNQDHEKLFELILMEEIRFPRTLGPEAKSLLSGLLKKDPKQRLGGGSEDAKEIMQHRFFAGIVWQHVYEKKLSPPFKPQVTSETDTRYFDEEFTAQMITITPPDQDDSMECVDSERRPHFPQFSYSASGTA
AKT1 kinase domain: residues 150-408 of P31749

How the values were obtained:
AKT1 kinase domain = AKT1 kinase domain (UniProt P31749); assay: co-IP; domain mapping with transfected tagged constructs (SFB-AKT1 and AKT1 truncations; Myc-TBK1 kinase domain and TBK1 truncations); in Figure 4F HEK-293T cells, with or without 2 µM MK2206 for 6 h, SFB-AKT1 immunoprecipitated with FLAG antibody
[1] = target: SFB-tagged full-length (FL) AKT1 (UniProt P31749); assay: as above
Myc-TBK1 = target: T1, Myc-TBK1 (UniProt Q9UHD2); assay: co-IP; HEK293T cells cotransfected for 48 h with Myc-TBK1, GFP-IRF3, FLAG-STING and AKT1-MYR-HA or AKT1-DN-HA; Myc-TBK1 immunoprecipitated with Myc antibody
T1 sequence: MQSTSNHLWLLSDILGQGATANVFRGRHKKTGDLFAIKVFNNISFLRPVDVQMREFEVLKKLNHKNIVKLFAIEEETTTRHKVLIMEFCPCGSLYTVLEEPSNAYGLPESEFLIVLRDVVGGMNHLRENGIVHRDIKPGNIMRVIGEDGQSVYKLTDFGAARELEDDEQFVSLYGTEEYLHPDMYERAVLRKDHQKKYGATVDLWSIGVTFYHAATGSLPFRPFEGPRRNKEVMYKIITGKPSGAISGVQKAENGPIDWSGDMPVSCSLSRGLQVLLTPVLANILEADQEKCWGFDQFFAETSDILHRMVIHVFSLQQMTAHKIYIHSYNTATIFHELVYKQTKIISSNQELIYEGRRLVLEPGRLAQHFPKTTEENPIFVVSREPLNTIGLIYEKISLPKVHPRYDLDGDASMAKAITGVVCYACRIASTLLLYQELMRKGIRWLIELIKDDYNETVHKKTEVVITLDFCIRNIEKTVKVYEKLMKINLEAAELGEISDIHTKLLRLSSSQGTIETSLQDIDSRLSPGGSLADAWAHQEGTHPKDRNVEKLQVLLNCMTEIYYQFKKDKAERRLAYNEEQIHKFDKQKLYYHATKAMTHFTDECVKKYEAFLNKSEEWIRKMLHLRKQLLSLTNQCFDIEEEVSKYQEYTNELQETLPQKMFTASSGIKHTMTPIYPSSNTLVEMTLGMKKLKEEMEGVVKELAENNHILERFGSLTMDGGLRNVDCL

[2] = target: T2, IRF3 (endogenous, R-MCF7 cells) (human (endogenous in R-MCF7)) (UniProt Q14653); assay: co-IP; endogenous proteins from R-MCF7 cells treated with 2 µg/mL HT-DNA (6 or 12 h); with or without 2 µM MK2206 pretreatment (Figure 4C, 4I) or siAKT1 knockdown (Figure 4H)
T2 sequence: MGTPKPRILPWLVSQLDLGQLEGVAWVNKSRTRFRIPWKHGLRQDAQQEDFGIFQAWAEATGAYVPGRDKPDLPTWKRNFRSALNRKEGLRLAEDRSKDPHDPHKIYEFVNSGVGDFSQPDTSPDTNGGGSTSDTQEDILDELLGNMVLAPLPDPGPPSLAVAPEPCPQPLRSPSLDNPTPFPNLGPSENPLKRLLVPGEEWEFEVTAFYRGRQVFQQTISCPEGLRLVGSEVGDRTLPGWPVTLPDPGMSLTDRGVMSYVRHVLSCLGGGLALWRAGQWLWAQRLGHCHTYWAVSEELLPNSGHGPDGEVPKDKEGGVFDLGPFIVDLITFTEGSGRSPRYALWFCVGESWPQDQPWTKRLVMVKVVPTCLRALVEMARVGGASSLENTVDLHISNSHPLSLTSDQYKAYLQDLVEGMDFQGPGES

[3] = target: AKT1 (endogenous, R-MCF7 cells) (human (endogenous in R-MCF7)) (UniProt P31749); assay: as above

binding (AKT1 kinase domain): binds
binding [1]: binds
B1: Myc-tagged TBK1 kinase domain (1-299) (domain or fragment, UniProt Q9UHD2 1-299)
chain: MQSTSNHLWLLSDILGQGATANVFRGRHKKTGDLFAIKVFNNISFLRPVDVQMREFEVLKKLNHKNIVKLFAIEEETTTRHKVLIMEFCPCGSLYTVLEEPSNAYGLPESEFLIVLRDVVGGMNHLRENGIVHRDIKPGNIMRVIGEDGQSVYKLTDFGAARELEDDEQFVSLYGTEEYLHPDMYERAVLRKDHQKKYGATVDLWSIGVTFYHAATGSLPFRPFEGPRRNKEVMYKIITGKPSGAISGVQKAENGPIDWSGDMPVSCSLSRGLQVLLTPVLANILEADQEKCWGFDQFF

binding (Myc-TBK1): binds
B2: GFP-IRF3 (protein, UniProt Q14653 1-427)
chain: MGTPKPRILPWLVSQLDLGQLEGVAWVNKSRTRFRIPWKHGLRQDAQQEDFGIFQAWAEATGAYVPGRDKPDLPTWKRNFRSALNRKEGLRLAEDRSKDPHDPHKIYEFVNSGVGDFSQPDTSPDTNGGGSTSDTQEDILDELLGNMVLAPLPDPGPPSLAVAPEPCPQPLRSPSLDNPTPFPNLGPSENPLKRLLVPGEEWEFEVTAFYRGRQVFQQTISCPEGLRLVGSEVGDRTLPGWPVTLPDPGMSLTDRGVMSYVRHVLSCLGGGLALWRAGQWLWAQRLGHCHTYWAVSEELLPNSGHGPDGEVPKDKEGGVFDLGPFIVDLITFTEGSGRSPRYALWFCVGESWPQDQPWTKRLVMVKVVPTCLRALVEMARVGGASSLENTVDLHISNSHPLSLTSDQYKAYLQDLVEGMDFQGPGES

binding [2]: binds
binding [3]: binds
B3: TBK1 (endogenous, R-MCF7 cells) (enzyme, UniProt Q9UHD2 1-729)
chain: MQSTSNHLWLLSDILGQGATANVFRGRHKKTGDLFAIKVFNNISFLRPVDVQMREFEVLKKLNHKNIVKLFAIEEETTTRHKVLIMEFCPCGSLYTVLEEPSNAYGLPESEFLIVLRDVVGGMNHLRENGIVHRDIKPGNIMRVIGEDGQSVYKLTDFGAARELEDDEQFVSLYGTEEYLHPDMYERAVLRKDHQKKYGATVDLWSIGVTFYHAATGSLPFRPFEGPRRNKEVMYKIITGKPSGAISGVQKAENGPIDWSGDMPVSCSLSRGLQVLLTPVLANILEADQEKCWGFDQFFAETSDILHRMVIHVFSLQQMTAHKIYIHSYNTATIFHELVYKQTKIISSNQELIYEGRRLVLEPGRLAQHFPKTTEENPIFVVSREPLNTIGLIYEKISLPKVHPRYDLDGDASMAKAITGVVCYACRIASTLLLYQELMRKGIRWLIELIKDDYNETVHKKTEVVITLDFCIRNIEKTVKVYEKLMKINLEAAELGEISDIHTKLLRLSSSQGTIETSLQDIDSRLSPGGSLADAWAHQEGTHPKDRNVEKLQVLLNCMTEIYYQFKKDKAERRLAYNEEQIHKFDKQKLYYHATKAMTHFTDECVKKYEAFLNKSEEWIRKMLHLRKQLLSLTNQCFDIEEEVSKYQEYTNELQETLPQKMFTASSGIKHTMTPIYPSSNTLVEMTLGMKKLKEEMEGVVKELAENNHILERFGSLTMDGGLRNVDCL
